Data as given in PMC12016516.

Chains of the proteins cited; added tags and fusions are not shown. Lines headed by an entry give the natural chain unless they say otherwise; changes in a name come on top.
UniProt Q5JIK0: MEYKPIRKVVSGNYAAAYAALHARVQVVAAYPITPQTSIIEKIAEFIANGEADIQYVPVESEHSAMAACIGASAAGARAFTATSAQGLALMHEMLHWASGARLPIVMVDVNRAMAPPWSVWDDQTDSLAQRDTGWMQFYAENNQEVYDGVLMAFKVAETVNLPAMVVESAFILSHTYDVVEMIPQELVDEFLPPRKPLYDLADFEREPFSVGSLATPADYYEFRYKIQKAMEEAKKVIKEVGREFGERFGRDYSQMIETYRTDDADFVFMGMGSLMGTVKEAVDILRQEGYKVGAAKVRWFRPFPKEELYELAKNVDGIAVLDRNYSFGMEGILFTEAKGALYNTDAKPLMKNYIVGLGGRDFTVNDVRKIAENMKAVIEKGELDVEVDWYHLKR

Key:
[1] = biological target: 2-Oxoisovalerate-ferredoxin oxidoreductase, α subunit (Thermococcus kodakarensis) (UniProt Q5JIK0); test: affinity purification with mass spectrometry; HA- and His6-tagged bait made from its native locus, captured from clarified T. kodakarensis lysate on a Ni2+-charged chelating column (buffer A: 10 mM Tris HCl pH 8.0, 500 mM NaCl, 10% glycerol), eluted with an imidazole gradient; pooled fractions identified by MuDPIT LC-MS/MS and compared with the parental strain TS559 (P < 0.05, log2 fold change ≥ 2); cells grown at 85°C with (+S˚) or without (–S˚) elemental sulfur
[2] = biological target: T1, 2-Oxoisovalerate-ferredoxin oxidoreductase, β subunit (Thermococcus kodakarensis) (UniProt Q5JIJ9); test: as above
T1 sequence: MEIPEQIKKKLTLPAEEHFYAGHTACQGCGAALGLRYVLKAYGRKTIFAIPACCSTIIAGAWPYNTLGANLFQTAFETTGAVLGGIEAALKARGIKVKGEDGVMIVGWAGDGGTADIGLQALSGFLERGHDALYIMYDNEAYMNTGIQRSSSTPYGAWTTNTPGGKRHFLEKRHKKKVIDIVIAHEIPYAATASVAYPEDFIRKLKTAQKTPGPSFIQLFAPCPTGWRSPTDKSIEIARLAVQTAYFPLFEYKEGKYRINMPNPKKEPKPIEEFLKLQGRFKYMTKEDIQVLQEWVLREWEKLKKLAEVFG

[3] = biological target: T2, 2-Oxoisovalerate-ferredoxin oxidoreductase, δ subunit (Thermococcus kodakarensis) (UniProt Q5JIK1); test: as above
T2 sequence: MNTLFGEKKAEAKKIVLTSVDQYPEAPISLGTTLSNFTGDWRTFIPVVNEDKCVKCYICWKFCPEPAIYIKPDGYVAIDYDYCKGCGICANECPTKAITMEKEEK

[4] = biological target: T3, Membrane-bound sulfane reductase, NiFe-hydrogenase large subunit 2, MBS-L (Thermococcus kodakarensis) (UniProt Q5JGG2); test: as above
T3 sequence: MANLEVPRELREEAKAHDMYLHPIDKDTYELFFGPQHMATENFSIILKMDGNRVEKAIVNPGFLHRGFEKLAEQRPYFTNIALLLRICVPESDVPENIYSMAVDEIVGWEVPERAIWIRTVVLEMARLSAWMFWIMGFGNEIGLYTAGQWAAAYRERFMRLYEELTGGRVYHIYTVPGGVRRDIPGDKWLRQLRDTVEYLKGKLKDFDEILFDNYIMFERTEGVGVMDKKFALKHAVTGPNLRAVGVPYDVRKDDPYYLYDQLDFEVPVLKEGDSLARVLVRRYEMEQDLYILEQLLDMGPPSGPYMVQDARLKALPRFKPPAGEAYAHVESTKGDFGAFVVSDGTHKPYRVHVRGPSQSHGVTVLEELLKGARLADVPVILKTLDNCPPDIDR

[5] = biological target: T4, Ferredoxin:NADP oxidoreductase, β subunit (FNOR2) (Thermococcus kodakarensis) (UniProt Q5JIY6); test: as above
T4 sequence: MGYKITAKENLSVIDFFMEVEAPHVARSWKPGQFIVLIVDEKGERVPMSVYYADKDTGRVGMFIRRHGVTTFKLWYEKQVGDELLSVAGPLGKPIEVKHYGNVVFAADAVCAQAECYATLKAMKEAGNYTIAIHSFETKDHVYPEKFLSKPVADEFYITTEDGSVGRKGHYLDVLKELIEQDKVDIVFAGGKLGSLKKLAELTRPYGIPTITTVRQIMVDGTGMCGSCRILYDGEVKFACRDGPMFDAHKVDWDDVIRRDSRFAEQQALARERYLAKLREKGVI

[6] = biological target: T5, Formate dehydrogenase, [4Fe-4S] cluster-binding protein, FDHγ3 (Thermococcus kodakarensis) (UniProt Q5JHV9); test: as above
T5 sequence: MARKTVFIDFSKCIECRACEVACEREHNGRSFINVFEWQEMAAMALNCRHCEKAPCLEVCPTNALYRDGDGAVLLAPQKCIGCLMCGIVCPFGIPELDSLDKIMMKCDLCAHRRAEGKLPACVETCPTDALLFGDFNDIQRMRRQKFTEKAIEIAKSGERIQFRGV

[7] = biological target: T6, Rubrerythrin Mn-catalase (Thermococcus kodakarensis) (UniProt Q5JHY4); test: as above
T6 sequence: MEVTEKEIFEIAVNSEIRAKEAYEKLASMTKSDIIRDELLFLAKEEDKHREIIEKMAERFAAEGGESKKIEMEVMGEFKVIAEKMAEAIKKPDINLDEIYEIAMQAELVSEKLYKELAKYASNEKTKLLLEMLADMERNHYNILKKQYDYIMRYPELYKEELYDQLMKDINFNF

[8] = biological target: T7, Rubrerythrin-related protein (Thermococcus kodakarensis) (UniProt Q5JF77); test: as above
T7 sequence: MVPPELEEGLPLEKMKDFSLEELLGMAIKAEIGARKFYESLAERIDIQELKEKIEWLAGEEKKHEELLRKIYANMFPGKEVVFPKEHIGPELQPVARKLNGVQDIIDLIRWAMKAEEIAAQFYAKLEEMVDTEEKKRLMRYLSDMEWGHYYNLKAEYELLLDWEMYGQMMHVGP

[9] = biological target: T8, 2-Oxoacid:ferredoxin oxidoreductases, β2 subunit (Thermococcus kodakarensis), Q5JE71; test: affinity purification with mass spectrometry; HA- and His6-tagged bait made from its native locus, captured from clarified T. kodakarensis lysate on a Ni2+-charged chelating column (buffer A: 10 mM Tris HCl pH 8.0, 500 mM NaCl, 10% glycerol), eluted with an imidazole gradient; pooled fractions identified by MuDPIT LC-MS/MS and compared with the parental strain TS559 (P < 0.05, log2 fold change ≥ 2); cells grown at …; conditions: remark: other sources report otherwise
T8 chain: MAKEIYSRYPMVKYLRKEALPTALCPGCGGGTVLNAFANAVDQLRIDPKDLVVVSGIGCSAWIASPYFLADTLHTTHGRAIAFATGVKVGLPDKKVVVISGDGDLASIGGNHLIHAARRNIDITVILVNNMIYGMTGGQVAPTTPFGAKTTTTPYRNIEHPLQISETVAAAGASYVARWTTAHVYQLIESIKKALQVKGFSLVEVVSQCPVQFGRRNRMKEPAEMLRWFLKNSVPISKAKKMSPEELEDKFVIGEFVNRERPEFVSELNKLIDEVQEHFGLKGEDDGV

[10] = biological target: T9, Geranylgeranyl reductase (Thermococcus kodakarensis), Q5JE27; test: as above; conditions: remark: other sources report otherwise
T9 chain: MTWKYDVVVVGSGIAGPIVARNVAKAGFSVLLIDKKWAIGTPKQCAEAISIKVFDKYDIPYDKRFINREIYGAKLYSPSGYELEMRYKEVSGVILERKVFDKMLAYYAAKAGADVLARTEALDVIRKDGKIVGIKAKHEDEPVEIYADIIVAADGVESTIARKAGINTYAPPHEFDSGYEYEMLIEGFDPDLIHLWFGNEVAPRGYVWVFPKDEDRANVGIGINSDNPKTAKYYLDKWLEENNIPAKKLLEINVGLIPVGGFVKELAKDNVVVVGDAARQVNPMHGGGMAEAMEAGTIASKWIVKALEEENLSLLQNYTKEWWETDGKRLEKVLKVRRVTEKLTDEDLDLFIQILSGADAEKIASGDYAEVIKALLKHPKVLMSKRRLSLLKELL

[11] = biological target: T10, 2-Oxoisovalerate-ferredoxin oxidoreductase, γ subunit (Thermococcus kodakarensis) (UniProt Q5JIK2); test: affinity purification with mass spectrometry; HA- and His6-tagged bait made from its native locus, captured from clarified T. kodakarensis lysate on a Ni2+-charged chelating column (buffer A: 10 mM Tris HCl pH 8.0, 500 mM NaCl, 10% glycerol), eluted with an imidazole gradient; pooled fractions identified by MuDPIT LC-MS/MS and compared with the parental strain TS559 (P < 0.05, log2 fold change ≥ 2); cells grown at 85°C with (+S˚) or without (–S˚) elemental sulfur
T10 sequence: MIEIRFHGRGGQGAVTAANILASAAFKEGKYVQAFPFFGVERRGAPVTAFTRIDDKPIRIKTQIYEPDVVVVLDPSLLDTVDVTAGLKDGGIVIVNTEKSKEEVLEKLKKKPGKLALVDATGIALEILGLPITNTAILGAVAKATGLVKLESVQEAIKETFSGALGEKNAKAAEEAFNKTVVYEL

Measured: binding

B1: 2-Oxoisovalerate-ferredoxin oxidoreductase, γ subunit (protein, UniProt Q5JIK2 1-185)
chain: T10 sequence
binds: [1] | [2] | [3]

B2: ferredoxin 3 (protein, UniProt Q5JDE8 1-138)
chain: MADVKAPVIGRDALGREVKDLSVIPWWGVDRKEIEWYPKINYSVCARCGLCFITCGRRVFDWDTEEGKPVVARPYNCMVGCNTCAILCPCNAIEFPPKEYVKKLVIEHGIIRKAFEITKPLTKKKEESTNGAESVFNP
binds: [4] | [5] | [6] | [7] | [8]

B3: ferredoxin 3, Q5JDE8 1-138 (protein)
chain: B2 chain
binds: [9] | [10]

B4: 2-Oxoisovalerate-ferredoxin oxidoreductase, β subunit (protein, UniProt Q5JIJ9 1-311)
chain: T1 sequence
binds: [1] | [11] | [3]

Results are given in words; binding and its absence hold for the method and conditions named. Binding seen in cells or lysates may run through a third protein. These calls come from enrichment with a bait or labelling near it, and not all partners need be listed.
